Measurements from PubChem BioAssay AID1508600 (Functional Genomics Laboratory (NCATS/FGL), 2020).
About 3,700 (7%) of roughly 53,000 sequences were called active.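 How the source made its calls: active means gene knockdowns whose robust z-score for IL-1 alpha signal is at least 2 or at most -2, so actives lie on both sides; inactive means the rest.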 The list shows a part of the results.

Test: Components of the Cytosolic LPS Sensing Pathway: Gene Identification via Genome-wide siRNA Screen;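 further: robust z of the log signal after scaling to non-targeting control siRNA wells of the plate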
Details: RAW264.7 macrophages, IL-1a HTRF, actives lie on both sides, screened at 100 nM (by protocol), cells primed 5 h with Pam3CSK4 first
Outline: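 Read-out: IL-1a HTRF on supernatant, divided by plate negative-control median ×100, log-transformed and converted to robust z-score. Cells were RAW264.7 given 100 nM siRNA, Pam3CSK4-primed 5 hours, then LipidA-transfected 24 hour.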

| Sequence | z-score |
| --- | --- |
| CCUCAGAUUUCAACCAUAGTT against Bhlhb9 | inactive: -1.24 |
| AGUAUACUGGUUUCAUAACTT against Rexo5 | inactive: 0.712 |
| GGCAAGCACUCUUUAGACATT against Cd2bp2 | inactive: 0.252 |
| GGUAAAUUCCUUAACUCACTT against Utrn | inactive: 0.141 |
| CGAAAAAACAUCAGACCCATT against Sulf1 | inactive: -0.105 |
| GGAAUUUCAGCCAGUUUCUTT against Sox5 | inactive: -0.216 |
| GGACCAUAGACAGAGAUUATT against Grk5 | inactive: 1.13 |
| GCGAUUUCCAUGUGAAUUCTT against Zfp462 | inactive: 0.276 |
| GGAACUGAACCACUUCAAATT against Ly6m | inactive: 0.127 |
| GGACUCUUCUUGGUGAUGUTT against Slc22a18 | inactive: -0.534 |
| GGAAAUGGAUGAAAUGAAUTT against Acrbp | inactive: -1.63 |
| GCUCUACUGCAUCAUUUUATT against Apobec1 | inactive: 0.279 |
| GGGAAGAAGGUUAGCUAAUTT against Trpc6 | inactive: 0.34 |
| GGAGUUUUUGGGUAACCUGTT against Mfge8 | inactive: 1.35 |
| GGCCAGGUAUAAAUAUAUATT against Dusp8 | active: 4.51 |
| GGAAUGAGGAAAGAGGAGATT against Rgs17 | inactive: -0.613 |
| GGAGGAGAAGAAACACCUGTT against Klc1 | inactive: -1.73 |
| GGUGCCAACUUAGAGAGCGTT against E430018J23Rik | inactive: 0.25 |
| GGGUCACGCAUCCUAAGAATT against Blvrb | inactive: 0.32 |
| GGAAACCUGCUCAUUGUCGTT against Olfr1233 | inactive: -0.874 |
| GGAAAAUCGGUUAUCAUAATT against Pde7a | inactive: -0.684 |
| GGCUGUGUUCUCAAACAGCTT against St6gal1 | inactive: -0.165 |
| GGUGCUUUGUUAUCCAUAATT against Tnfrsf26 | active: -2.72 |

Five entries from above, as tab-separated lines:
Sequence	z-score
GGGAAGAAGGUUAGCUAAUTT against Trpc6	inactive: 0.34
GGAGUUUUUGGGUAACCUGTT against Mfge8	inactive: 1.35
GGCCAGGUAUAAAUAUAUATT against Dusp8	active: 4.51
GGAAUGAGGAAAGAGGAGATT against Rgs17	inactive: -0.613
GGAGGAGAAGAAACACCUGTT against Klc1	inactive: -1.73

(cont.)

| Sequence | z-score |
| --- | --- |
| GGGCAAGAUGAAGAGGAUUTT against Ptdss2 | inactive: 0.215 |
| GCAAGUUAGGCCUUUUAAATT against Cycs | inactive: -0.197 |
| GCCUUACGCACUCUCUAAATT against Col4a2 | inactive: 0.0905 |
| GCCCUUACAUUUUAUACUATT against Zfp93 | inactive: 1.1 |
| GGUGGAUUUGAACCCAAAATT against Dnajc19 | inactive: -0.386 |
| GCAUCUGGUAAAAGGAGCATT against Rpap1 | inactive: 0.956 |
| GGAAGCCAUUAUACAUGACTT against Uvrag | inactive: -0.261 |
| GGUAACCUGGAUGGAGAAGTT against Mrps24 | inactive: -0.466 |
| GGCAGAGGCAGACAAGAUUTT against Scg3 | inactive: -0.377 |
| CGUAAGGAAGAUAACUUUUTT against Gatm | inactive: -0.312 |
| GCACUUAUACUACUUAGUUTT against Abca8a | active: 2.4 |
| UCCUGUUCGUUCCUUUCCUTT against Olfr740 | inactive: 0.273 |
| GGGUGCUAAAGAAUGUAUUTT against Elapor2 | inactive: 0.521 |
| CGUACUAUAGUAAAUCCAGTT against Clk1 | active: 2.4 |
| GGAGAAAUUCUUCAAUGAGTT against Syt2 | inactive: -0.19 |
| GCGAAGCGAAUCCUUUUUCTT against Fosl2 | inactive: 0.0982 |
| CGAACCUGUUGACGGAUUCTT against Wnt1 | inactive: 0.563 |
| GGCCAGAGCAUUUUCUUCATT against Pif1 | inactive: 0.72 |
| GGAAAGCACGUCCUCUUUGTT against Gpx5 | inactive: -0.995 |
| CCUCAGACUACCUUGUGGUTT against Otub1 | inactive: -0.216 |
| GGCAACCAAUCAAAUUGUGTT against Npepps | inactive: -0.192 |
| GGAUCCUUGUACAGAAAUGTT against Arhgap33 | inactive: -0.334 |
| CAAAGCCACCUCGCCCUAUTT against Nkx2-6 | inactive: -0.0586 |

| Sequence | z-score |
| --- | --- |
| GGAAUUAAAUGAACCCAGATT against Arhgap8 | active: 2.48 |
| UACCCGAAUGCAGACAGGATT against Raet1a | inactive: 0.667 |
| CCAUUGUAGUCAGUCAAAUTT against Pip | inactive: -0.498 |
| GGUCCUAUGGAUUAAUGCUTT against Ccn4 | active: 3.46 |
| GGAGGAAGAGCUCAUUGCATT against Tnnt1 | inactive: 0.588 |
| GGCUGUAGCCAAAUAUCUUTT against Sec62 | inactive: -0.927 |
| GGUUAACGAAGGAGAGAAGTT against Rsph9 | inactive: 0.198 |
| GGCCAAGGGAAAAAAACCCTT against Pax7 | inactive: -1.1 |
| GACUACACUGAUUUUUCAUTT against Olfr980 | inactive: -0.369 |
| GCACUUGAAUCGAUUGAAUTT against Ppp4r3b | inactive: -1.46 |
| GGAUAGUUUUGUGUUUGAUTT against Gab2 | inactive: 0.932 |
| CGCAACAGAUAGUAAAUAUTT against Ufsp2 | inactive: -1.21 |
| GGAUGCCAUUUACCGUGCUTT against Olfr418 | inactive: 1.2 |
| GGAAGGAGUAUGGCAGGAGTT against Fbxo17 | inactive: -0.544 |
| CGGCAAUUUGAGUUGAAAATT against Ppp1r2-ps9 | inactive: -0.571 |
| GGACUGCUGUCACCAUUUCTT against Gpr132 | inactive: 0.627 |
| GCCUGGAUUCAGAAGCUACTT against Ugt1a1 | inactive: -0.51 |
| GGGAAUAAGUAGUAGACUCTT against Zfp948 | inactive: 1.17 |
| GGGUGAAGUAGGUGAAAAATT against H2-M10.6 | inactive: -0.361 |
| GGUAUAAGACCUUUUCAACTT against Olfr509 | inactive: -0.393 |
| GGAAAAGAAAGAAGCUUUUTT against Rrp1b | inactive: 0.988 |
| GGAAGAAAUCAUCCACAACTT against Bid | inactive: -1.27 |

Reprinted at random: two entries already listed

| Sequence | z-score |
| --- | --- |
| GGGAAUAAGUAGUAGACUCTT against Zfp948 | inactive: 1.17 |
| GGAAGGAGUAUGGCAGGAGTT against Fbxo17 | inactive: -0.544 |
